# According to PubChem BioAssay AID2417 (National Center for Advancing Translational Sciences (NCATS), 2010):
# Among all 140,000 compounds or so, about 4,300 (3.1%) were called active. Inconclusive results, whose numbers are uncertain, are shown with a selection of clear calls.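 Rule for the calls: active = readout at or below -70, meaning at least 70% loss of cells showing the perinucleolar compartment, a nuclear body marking cancer cells; inconclusive = readout between -30 and a set limit; inactive = the rest.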
# Test: High Content Assay for Compounds that inhibit the Assembly of the Perinucleolar Compartment;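 note: plate controls were DMSO wells for no effect and camptothecin positive control wells for full effect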
# Settings: PC3M PTB-GFP, PNC prevalence imaging, 16 h; at 10 µM; stronger effect = lower value
# Outline: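 Compounds are pinned in duplicate onto adhered PC3M cells stably expressing GFP-tagged PTB and incubated 16 h at 37 C. Cells are then fixed, nuclei stained with Hoechst, and PNC-positive cells counted.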
row,Compound,"activity change (PNC), negative = inhibition"
1,CCCCCCN=CC1=C(O)CC(C)(C)CC1=O,inactive: -15.8%
2,O=C1/C(=C/c2c[nH]c3ccccc23)CCC/C1=C\c1c[nH]c2ccccc12,inactive: 14.4%
3,C=CCOc1ccc(CN(C)CC(=O)N(CC(C)C)c2c(N)n(CC(C)C)c(=O)[nH]c2=O)cc1,active: -101%
4,C#CCNc1nc(C)nc2c1nnn2Cc1ccccc1F,inconclusive: -57%
5,c1coc(CN2CN=C(Nc3nc4ccccc4s3)NC2)c1,inconclusive: -54%
6,O=C(Nc1ccc(Br)cc1)c1cccc(N2C(=O)C3C4CCC(C4)C3C2=O)c1 (configuration not stated),inconclusive: -40%
7,Cc1ccc(C(=O)COc2cccc(NC(=O)c3ccco3)c2)cc1,inconclusive: -42.7%
8,COc1nc2c(C)cccc2cc1-c1noc(-c2ccncc2)n1,inactive: 55.4%
9,CC(C)c1nc(SCC(=O)N2CCOCC2)c2c(=O)n(C)c(=O)n(C)c2n1,active: -106%
10,Cc1oc(C)c2c(=O)ccc3c(c12)OC(N)=C(C#N)C3c1ccc(F)cc1 (configuration not stated),inconclusive: -49.4%
11,COc1ccccc1NS(=O)(=O)c1cccc(NC(=S)NCCN2CCOCC2)c1,inconclusive: -46.2%
12,S=C(NCc1cccs1)Nc1ccccc1Cl,inactive: -15%
13,CCCNS(=O)(=O)c1ccc(C(=O)NCC2CCCO2)cc1 (configuration not stated),inconclusive: -33.4%
14,O=C(COC(=O)c1cccc(C(=O)OCC(=O)c2ccc(Br)cc2)n1)c1ccc(Br)cc1,inconclusive: -37.2%
15,NC(=O)CN1N=C(c2cc(Cl)sc2Cl)CSC1=O,inconclusive: -38.2%
16,Cc1ccc(NCCC(=O)c2ccc(Cl)cc2)cc1C,inactive: -12.8%
17,Nc1nonc1-n1nnc(C(=O)c2ccccc2)c1-c1ccccc1,inconclusive: -43.6%
18,CCCCCC1CC(CC(=O)Nc2nncs2)C(=O)O1 (configuration not stated),active: -100%
19,Clc1ccc(-n2nnnc2SCc2c(-c3ccccc3)nc3sccn23)cc1,inconclusive: -37.7%
20,COc1ccc(-c2ccc(OC)cc2)cc1,inconclusive: -56.8%
21,O=C(N/N=C/c1sc(=O)n(-c2ccccc2)c1Cl)c1ccccc1,inactive: -6.62%
22,CSc1ccccc1C(=O)NC1CCCCCC1,inconclusive: -45.4%
23,Cc1ccccc1CSCCNS(C)(=O)=O,inactive: 9.12%

# Copied from the entries so far (2 entries):
row,Compound,"activity change (PNC), negative = inhibition"
12,S=C(NCc1cccs1)Nc1ccccc1Cl,inactive: -15%
13,CCCNS(=O)(=O)c1ccc(C(=O)NCC2CCCO2)cc1 (configuration not stated),inconclusive: -33.4%

# The list goes on.

row,Compound,"activity change (PNC), negative = inhibition"
1,CCN(c1ccc2c(c1)OCO2)S(=O)(=O)c1cc(Br)cc2c1N(C(C)=O)CC2,inactive: 102%
2,COC(=O)c1ccc(CSc2nc(N3CCOCC3)c3c(c2C#N)CC(C)(C)OC3)o1,inconclusive: -43.6%
3,Nc1ccc(C(=O)O)c(O)c1,inconclusive: -37.4%
4,CCC(=O)c1ccc(OCC(=O)O)cc1,inactive: -19.8%
5,O=C(NCCO)C(=O)NCC1OCCCN1S(=O)(=O)c1cccs1 (configuration not stated),active: -80.2%
6,CCOc1ccc(NS(=O)(=O)c2ccc3[nH]cc(C(=O)NCC4CCCO4)c(=O)c3c2)cc1 (configuration not stated),inactive: 10.5%
7,CS(=O)(=O)N1CCc2cc(-c3csc(NCC4CCCO4)n3)ccc21 (configuration not stated),inconclusive: -30.9%
8,Cc1nnc(NCc2ccco2)c2ccccc12,inconclusive: -57.9%
9,O=C(CN1C(=O)CCC1=O)Nc1nc(-c2ccc(Cl)s2)cs1,inconclusive: -39.9%
10,Cc1cs/c(=N/C(=S)Nc2ccccc2)n1C,inconclusive: -34.4%
11,COC(=O)c1sccc1NC(=O)COc1ccc(Cl)cc1,inactive: -3.53%
12,CCCCNC(=O)CS(=O)Cc1nc(-c2cccs2)oc1C (configuration not stated),inactive: -6.03%
13,O=C(CCc1nc2ccccc2[nH]c1=O)OCC(=O)N1CCc2ccccc21,inconclusive: -36%
14,CCCCCCc1cc2cc(C(=O)NC)c(=N)oc2cc1O,inconclusive: -34.6%
15,O=C(c1cccs1)N(Cc1cc2ccccc2[nH]c1=O)c1ccccc1,inconclusive: -66.6%
16,COc1ccc(-n2c(C)c(C(C)=O)c(C(C)=O)c2C)cc1,inactive: -14.2%
17,COC(=O)Cn1c(=NC(=O)c2ccc(Cl)s2)sc2cc(C)ccc21,active: -119%
18,CC(C)Oc1ccc(NC(=O)Oc2ccccc2)cc1,inactive: 36.2%
19,O=C1CC(SCc2nc3ccccc3[nH]2)C(=O)N1c1cccc(Cl)c1 (configuration not stated),inconclusive: -31.3%
20,O=c1c2c3c(sc2ncn1/N=C/c1ccccc1)CCCC3,inactive: -15.8%
21,Nc1nc(SCC(=O)NCc2ccccc2)[nH]c(=O)c1NC(=O)c1ccccc1F,inactive: 73.2%
22,COc1ccc(C/C(=N\O)c2ccc(OC)cc2)cc1,inconclusive: -45.3%
23,CC(NC(=O)Cc1cccs1)c1ccncc1 (configuration not stated),inconclusive: -43.8%

row,Compound,"activity change (PNC), negative = inhibition"
1,Cc1nnc2n1N=CC=C(C(C)(C)C)S2,inactive: -29.1%
2,O=c1cc(NCc2ccc3c(c2)OCO3)[nH]c(=O)n1-c1ccc(Cl)cc1,inactive: -18.1%
3,CCN(CC)C(=O)c1ccc(COc2ccccc2Cl)cc1,inconclusive: -62.9%
4,O=C(Nc1nc2c(s1)CCCC2)c1cc(-c2ccc3c(c2)OCO3)nc2ccccc12,inconclusive: -37.6%
5,Cc1ccc(C2C3=C(CC(C)(C)CC3=O)NC3=C2C(=O)CC(C)(C)C3)o1,inactive: 9%
6,OCCNc1nc(OCC(F)(F)F)nc(N2CCN(C34CC5CC(CC(C5)C3)C4)CC2)n1,inconclusive: -44%
7,CC(C)(C)c1ccc(-c2nnc(SCCC#N)n2C2CCCC2)cc1,inactive: -2.38%
8,c1ccc(COc2ccc(Oc3nc(N4CCCCC4)nc(N4CCOCC4)n3)nn2)cc1,inconclusive: -53.8%
9,CC1CN(CC(O)COC(c2ccccc2)c2ccccc2)CC(C)O1 (configuration not stated),inconclusive: -38%
10,COC(=O)c1ccccc1N/C=C1\CCc2c(c(C)nn2-c2ccccn2)C1=O,inconclusive: -31.8%
11,CCOC(=O)c1c(NC(=O)CSc2nnc(-c3cccnc3)o2)sc(C)c1C,inconclusive: -38.7%
12,COc1cc(C2C(C#N)=C(N)Oc3cc(O)ccc32)cc(OC)c1OC (configuration not stated),active: -91.1%
13,COc1cc(/C=C2/C(=O)c3cccc([N+](=O)[O-])c3C2=O)c(Br)cc1O,inactive: 0.833%
14,Cc1ccc(C2CC(c3ccccc3)=NN2C(=O)CSc2nnc(-c3ccc(Cl)cc3)o2)o1 (configuration not stated),inactive: -9%
15,N#C/C(=C/c1ccc(Sc2nc3ccccc3[nH]2)o1)c1cccc(F)c1,inactive: -1.82%
16,COc1ccc(N(CC(=O)NCCSC2CCCCC2)S(C)(=O)=O)c(OC)c1,inconclusive: -41.6%
17,O=C(Cn1cncn1)NCc1ccc(Cl)cc1,inconclusive: -59.1%
18,CC(C(=O)Nc1nccs1)N1C(=O)C2CC=CCC2C1=O (configuration not stated),inconclusive: -55.5%
19,CN(C)S(=O)(=O)c1cccc(-c2nn(-c3ccccc3)cc2/C=C2\SC(=S)NC2=O)c1,inactive: 30.5%
20,CC(=O)c1ccc(NC(=O)Nc2ncn(Cc3cccc(C)c3)n2)cc1,inconclusive: -40.6%
21,CCn1c(CCCOc2ccc(Cl)cc2Cl)nnc1SCC(=O)Nc1cc(F)ccc1C,inconclusive: -63.5%
22,CCOc1ccc(NC(=O)C2CC(=O)N(C(C)C)C2)cc1 (configuration not stated),inconclusive: -79.3%
23,CO/N=C(\c1nonc1N)N1CCN(c2ccc([N+](=O)[O-])cc2Cl)CC1,inconclusive: -55.6%

row,Compound,"activity change (PNC), negative = inhibition"
1,C(=N/n1c2ccccc2c2ccccc21)/c1ccco1,inconclusive: -57.4%
2,COC(=O)NNS(=O)(=O)c1ccc(C)cc1,active: -98.7%
3,CCCCn1nc(-c2ccccc2)c2nc3ccccc3nc21,inconclusive: -31.3%
4,CCCCn1nc2cc(C(=O)NC3CCCc4ccccc43)ccc2c1OCC (configuration not stated),inconclusive: -39.8%
5,CCC(C)NC(=O)CCS(=O)(=O)c1ccc2c(c1)n(C)c(=O)c(=O)n2C (configuration not stated),inconclusive: -34.6%
6,COc1ccc(S(=O)(=O)N2CCN(CC(=O)Nc3ccc(C)c(F)c3)CC2)cc1,inactive: 9.06%
7,CCCCOc1ccccc1Cn1c(=O)oc2ccccc21,inconclusive: -41.6%
8,CCc1ncc(C(=O)c2ccc(OC)cc2)n1C,inactive: -0.305%
9,S=C(NCc1cccs1)Nc1cccc(Cl)c1Cl,inconclusive: -49.9%
10,COc1ccc(C(=O)N/N=c2\oc3ccccc3cc2C(=O)NCc2ccccc2)cc1,inactive: 31.1%
11,O=C1Nc2c(c(=O)[nH]c(=O)n2-c2ccccc2F)C(C(F)(F)F)(C(F)(F)F)N1,inconclusive: -44.2%
12,COCCn1c(SCC(=O)c2ccc(Cl)cc2)nnc1C(C)C,inactive: 19.3%
13,Nc1nc(SCc2ccccc2Cl)nc2nc3c(cc12)CCCC3,inactive: 69.3%
14,O=C(N/N=C/c1ccccc1[N+](=O)[O-])c1ccc(COc2ccccc2-c2ccccc2)cc1,inactive: -18.2%
15,COc1ccc(N/C=C(/C(C)=O)c2ccccc2)cc1,inconclusive: -42.5%
16,O=C(N/N=C\C=C\c1ccc2c(c1)OCO2)C1COc2ccccc2O1 (configuration not stated),inconclusive: -51.2%
17,O=C(O)CSC(C(=O)Nc1ccc(C(F)(F)F)cc1)c1ccccc1 (configuration not stated),inconclusive: -48.5%
18,O=c1[nH]c(CSc2nnc(COc3ccccc3)n2-c2ccccc2)nc2ccccc12,inconclusive: -57.5%
19,Cc1ccc(NC(=O)CCCSc2nc3ccccc3[nH]2)cc1,inconclusive: -51.6%
20,CCOC(=O)c1nn(-c2cccc(Cl)c2)c(C)c1C(C)=O,inactive: 37.6%
21,COc1ccc(CC(=O)Nc2sc(Cc3ccccc3)c(C)c2C(N)=O)cc1,inconclusive: -39.7%
22,O=S(=O)(NC1c2cccc3cccc(c23)C1Sc1ncccn1)c1ccccc1 (configuration not stated),inconclusive: -46.2%
23,Cc1[nH]c2ccccc2c1CCNC(=O)c1ccc2c(c1[N+](=O)[O-])C(=O)c1ccccc1C2=O,inactive: 65.7%

# A different layout for some results above.
row | Compound | activity change (PNC), negative = inhibition
15 | COc1ccc(N/C=C(/C(C)=O)c2ccccc2)cc1 | inconclusive: -42.5%
17 | O=C(O)CSC(C(=O)Nc1ccc(C(F)(F)F)cc1)c1ccccc1 (configuration not stated) | inconclusive: -48.5%
20 | CCOC(=O)c1nn(-c2cccc(Cl)c2)c(C)c1C(C)=O | inactive: 37.6%
